The results in this text go back to article PMC11630066.

By UniProt entry, the sequences of proteins in these tests, tags left out.
UniProt P60953: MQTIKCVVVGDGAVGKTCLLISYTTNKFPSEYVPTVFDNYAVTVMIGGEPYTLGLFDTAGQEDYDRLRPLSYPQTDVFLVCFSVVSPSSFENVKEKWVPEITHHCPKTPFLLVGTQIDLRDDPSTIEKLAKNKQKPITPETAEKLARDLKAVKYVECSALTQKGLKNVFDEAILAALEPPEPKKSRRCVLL
UniProt P49841: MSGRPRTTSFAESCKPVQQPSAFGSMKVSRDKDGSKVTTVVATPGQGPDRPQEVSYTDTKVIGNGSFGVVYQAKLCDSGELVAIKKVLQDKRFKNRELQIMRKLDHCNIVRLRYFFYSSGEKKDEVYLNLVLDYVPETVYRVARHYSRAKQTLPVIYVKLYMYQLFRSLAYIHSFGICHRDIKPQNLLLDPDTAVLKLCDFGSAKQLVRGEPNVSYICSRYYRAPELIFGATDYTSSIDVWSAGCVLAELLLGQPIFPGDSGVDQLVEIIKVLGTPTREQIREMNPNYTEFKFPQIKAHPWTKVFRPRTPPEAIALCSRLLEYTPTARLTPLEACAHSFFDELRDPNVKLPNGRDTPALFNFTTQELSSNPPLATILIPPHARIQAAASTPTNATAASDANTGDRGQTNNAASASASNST

These are yes or no findings as the source states them, for the method shown. Binding seen in cells or lysates may run through a third protein.

For the assay, the target named is cell division cycle 42 (CDC42), endogenous (human (endogenous in T-EnSCs)) (UniProt P60953). Put plainly: co-IP; extracts of T-EnSCs, immunoprecipitation with CDC42 antibody or rabbit IgG control (5 μg, overnight 4°C, protein A/G beads), western blot of CDC42, GSK3β and AKT. Background: Immunoblotting shows a protein as a band on a membrane.

Turning to “GSK3β, endogenous (from UniProt P49841 1-420)”, the binding result is “no binding”.
